In assay [1] the target is PgpB, Escherichia coli (PgpB^Ec) (Escherichia coli) (UniProt P0A924). The assay can be described thus: native MS; PgpB^Ec released from LDAO micelles, 200 mM ammonium acetate pH 8.0, 0.05% LDAO, activation 100-200 V; also after less stringent purification (apo and cardiolipin-bound monomer); both purified.
Assay [2] has the same target. Put plainly: native MS; PgpB^Ec equilibrated with fourfold molar excess of exogenous POPE; both purified.

These are yes or no findings as the source states them, for the method shown.

B1: PgpB, Escherichia coli (PgpB^Ec) (enzyme, UniProt P0A924 2-254)
chain: RSIARRTAVGAALLLVMPVAVWISGWRWQPGEQSWLLKAAFWVTETVTQPWGVITHLILFGWFLWCLRFRIKAAFVLFAILAAAILVGQGVKSWIKDKVQEPRPFVIWLEKTHHIPVDEFYTLKRAERGNLVKEQLAEEKNIPQYLRSHWQKETGFAFPSGHTMFAASWALLAVGLLWPRRRTLTIAILLVWATGVMGSRLLLGMHWPRDLVVATLISWALVAVATWLAQRICGPLTPPAEENREIAQREQES
Turning to B1, the binding result in assay [1] and in assay [2] was “no binding” throughout.

For the origin of these results see publication PMC10941186, “Real-Time Biosynthetic Reaction Monitoring Informs the Mechanism of Action of Antibiotics” (Journal of the American Chemical Society, 2024).
